Experimental data from PubChem BioAssay AID1487 (National Center for Advancing Translational Sciences (NCATS), 2009).
The other results are listed elsewhere or left out. Further columns of the screen follow, without active or inactive calls. Compounds called inactive in the main read-out are mostly missing here. Words in brackets tell the shape of the fitted curve; partial curves, single points and poor fits give uncertain potencies.

Experiment: qHTS Assay for Modulators of Lamin A Splicing
Details: HeLa LMNA splicing GFP/RFP minigene ratio, 48 h
Method in brief: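 Read-out is the ratio of GFP to DsRed2 object intensity, acquired by 488 nm laser-scanning cytometry on HeLa lamin A-EGFP minigene reporter cells. Compound incubation 48 hrs at 37 °C in Opti-MEM with 2% FBS; DMSO 0.5% final.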

[1] = measured here: GFP splicing reporter channel
[2] = measured here: RFP viability control channel

Compound	AC50 [1]	AC50 [2]
CC(CCc1ccccc1)NC(=O)Cn1c(=O)nc(-c2ccccc2)c2ccccc21 (stereo unspecified)	22.4 µM [falling, partial curve]	–
COc1cc(OC)c(N(C)S(=O)(=O)c2cccc(C(=O)OCC(=O)c3c[nH]c4ccccc34)c2)cc1Cl	–	11.2 µM [rising, partial curve]
COc1ccc(NC(=S)NC(NC(=O)c2ccc(Cl)cc2Cl)C(Cl)(Cl)Cl)c([N+](=O)[O-])c1 (stereo unspecified)	35.5 µM [rising, single point]	20 µM [rising, single point]
CCOC(=O)N1CCN(C(=O)c2ccc(CNS(=O)(=O)c3ccc(C)cc3)cc2)CC1	31.6 µM [rising, single point]	–
CCOC(=O)/C(=C/c1ccc(OC(=O)c2ccncc2)cc1)C(C)=O	0.355 µM [falling, full curve, poor fit]	–
CN(C)C(=S)SCC(=O)Nc1cccc(C(F)(F)F)c1	10 µM [rising, partial curve, poor fit]	10 µM [rising, single point]
O=C(Cc1ccc(-c2ccccc2)cc1)NCCS(=O)(=O)N1CCN(c2ccccc2)CC1	0.01 µM [falling, full curve, poor fit]	–
O=C(CSCc1ccccc1Br)N/N=C/c1ccc(OCC(=O)N2CCCCC2)cc1	–	35.5 µM [rising, single point]
COc1ccc(CCNC(=O)CSc2cn(Cc3cccc(C)c3)c3ccccc23)cc1OC	–	12.6 µM [rising, partial curve]
Cc1ccn2c(=O)cc(COc3cccc(NC(=O)Nc4cccc(Cl)c4C)c3)nc2c1	17.8 µM [falling, single point]	22.4 µM [falling, partial curve]
COc1cccc(NC(=S)NC2CC3CCCC(C2)N3CC(C)C)c1 (stereo unspecified)	–	0.2 µM [falling, full curve, poor fit]
O=C(OCC(=O)c1c[nH]c2ccccc12)c1cc(Br)ccc1O	35.5 µM [falling, single point]	35.5 µM [falling, partial curve]
O=c1c2c(nc3c(-c4ccccc4)c[nH]n13)CCCC2	–	22.4 µM [rising, single point]
CCOc1ccc(/C=C/C2=Cc3c(sc(NC(=O)CSc4n[nH]c(N)n4)c3C#N)C(C)(C)C2)cc1	15.8 µM [falling, single point]	15.8 µM [falling, partial curve]
Cn1c(SCC2CCCO2)nnc1-c1cccc([N+](=O)[O-])c1 (stereo unspecified)	–	1.78 µM [falling, full curve, poor fit]
Cc1cc(Nc2cccc(C(F)(F)F)c2)nc2ccc(NC(=O)c3cccc(Cl)c3)cc12	35.5 µM [falling, single point]	–
Cc1sc2nc(SCC(=O)NCCO)n(-c3ccccc3)c(=O)c2c1C	–	0.02 µM [falling, full curve, poor fit]

Compound	AC50 [1]	AC50 [2]
N/C(=N\c1nc2ccccc2o1)NC(=O)C(Cc1ccccc1)N1C(=O)c2ccccc2C1=O (stereo unspecified)	35.5 µM [rising, single point]	35.5 µM [rising, single point]
Cc1ccc(CSc2ncnc3c2cnn3Cc2ccccc2)cc1C	–	35.5 µM [rising, single point]
CC#CCN1c2ccccc2[C@]23C[C@@H](C(=O)OC)N(S(=O)(=O)c4ccc(C#N)cc4)C2=NC(C(=O)OC)=C(C(=O)OC)[C@H]13	–	5.62 µM [rising, single point]
CN(C)Cc1ccccc1-c1nc(NC2CCNCC2)c2ccccc2n1	11.2 µM [falling, partial curve]	14.1 µM [falling, partial curve]
CC(Nc1c([N+](=O)[O-])c(=O)oc2ccccc12)C(Cl)c1ccccc1 (stereo unspecified)	15.8 µM [falling, single point]	31.6 µM [falling, single point]
CC1S/C(=N/N=C/c2ccco2)N(Cc2ccccc2)C1=O (stereo unspecified)	–	15.8 µM [rising, single point]
O=C(CN1C(=O)c2cccnc2Oc2ccc(Cl)cc21)Nc1cccc(C(F)(F)F)c1	11.2 µM [rising, partial curve]	22.4 µM [rising, single point]
CC(C)c1ccc(NC(=S)NC2CCCCCC2)cc1	35.5 µM [falling, single point]	11.2 µM [falling, partial curve, poor fit]
COc1ccccc1OCC(=O)Nc1oc(-c2ccccc2)c(-c2ccccc2)c1C#N	–	22.4 µM [rising, single point]
COc1ccc(-c2c(C(C)=O)c(C)nc3sc4c(=N)n(N)cnc4c23)cc1	12.6 µM [rising, single point]	12.6 µM [rising, partial curve, poor fit]
O=C(NNS(=O)(=O)c1ccc(Cl)cc1)c1cc(-c2ccccc2)nc2ccccc12	–	22.4 µM [rising, partial curve]
Cn1cc(-c2nc3cncnc3n(Cc3ccccc3Cl)c2=O)c2ccccc21	–	1.12 µM [falling, full curve]
Cc1cc(C)n(C(C)CC(=O)Nc2ccc(C)c(N(C)C)c2)n1 (stereo unspecified)	–	0.0178 µM [falling, full curve, poor fit]
COc1ccc(NC(=O)COC(=O)c2ncc(Cl)c(Cl)c2Cl)c(OC)c1	–	5.62 µM [rising, single point]
Fc1ccc(CNCc2ccccc2Cl)cc1	0.501 µM [falling, full curve, poor fit]	–
O=C(NC1CCCC1)c1ccc2c(=O)n(Cc3ccccc3)c(SCc3cccc(F)c3)nc2c1	–	0.0251 µM [falling, full curve, poor fit]
CC(OC(=O)CNC(=O)c1ccccc1F)C(=O)Nc1nc(-c2ccccc2)cs1 (stereo unspecified)	3.55 µM [falling, partial curve, poor fit]	4.47 µM [falling, partial curve, poor fit]

Gathered by group: those above with fluorine
Compound	AC50 [1]	AC50 [2]
CN(C)C(=S)SCC(=O)Nc1cccc(C(F)(F)F)c1	10 µM [rising, partial curve, poor fit]	10 µM [rising, single point]
Cc1cc(Nc2cccc(C(F)(F)F)c2)nc2ccc(NC(=O)c3cccc(Cl)c3)cc12	35.5 µM [falling, single point]	–
O=C(CN1C(=O)c2cccnc2Oc2ccc(Cl)cc21)Nc1cccc(C(F)(F)F)c1	11.2 µM [rising, partial curve]	22.4 µM [rising, single point]
Fc1ccc(CNCc2ccccc2Cl)cc1	0.501 µM [falling, full curve, poor fit]	–
O=C(NC1CCCC1)c1ccc2c(=O)n(Cc3ccccc3)c(SCc3cccc(F)c3)nc2c1	–	0.0251 µM [falling, full curve, poor fit]
CC(OC(=O)CNC(=O)c1ccccc1F)C(=O)Nc1nc(-c2ccccc2)cs1 (stereo unspecified)	3.55 µM [falling, partial curve, poor fit]	4.47 µM [falling, partial curve, poor fit]
